Binding data for 2 substances are collected here from PMC5924754.

By UniProt entry, the sequences of proteins in these tests, tags left out. Residues count along the entry.
UniProt P46379: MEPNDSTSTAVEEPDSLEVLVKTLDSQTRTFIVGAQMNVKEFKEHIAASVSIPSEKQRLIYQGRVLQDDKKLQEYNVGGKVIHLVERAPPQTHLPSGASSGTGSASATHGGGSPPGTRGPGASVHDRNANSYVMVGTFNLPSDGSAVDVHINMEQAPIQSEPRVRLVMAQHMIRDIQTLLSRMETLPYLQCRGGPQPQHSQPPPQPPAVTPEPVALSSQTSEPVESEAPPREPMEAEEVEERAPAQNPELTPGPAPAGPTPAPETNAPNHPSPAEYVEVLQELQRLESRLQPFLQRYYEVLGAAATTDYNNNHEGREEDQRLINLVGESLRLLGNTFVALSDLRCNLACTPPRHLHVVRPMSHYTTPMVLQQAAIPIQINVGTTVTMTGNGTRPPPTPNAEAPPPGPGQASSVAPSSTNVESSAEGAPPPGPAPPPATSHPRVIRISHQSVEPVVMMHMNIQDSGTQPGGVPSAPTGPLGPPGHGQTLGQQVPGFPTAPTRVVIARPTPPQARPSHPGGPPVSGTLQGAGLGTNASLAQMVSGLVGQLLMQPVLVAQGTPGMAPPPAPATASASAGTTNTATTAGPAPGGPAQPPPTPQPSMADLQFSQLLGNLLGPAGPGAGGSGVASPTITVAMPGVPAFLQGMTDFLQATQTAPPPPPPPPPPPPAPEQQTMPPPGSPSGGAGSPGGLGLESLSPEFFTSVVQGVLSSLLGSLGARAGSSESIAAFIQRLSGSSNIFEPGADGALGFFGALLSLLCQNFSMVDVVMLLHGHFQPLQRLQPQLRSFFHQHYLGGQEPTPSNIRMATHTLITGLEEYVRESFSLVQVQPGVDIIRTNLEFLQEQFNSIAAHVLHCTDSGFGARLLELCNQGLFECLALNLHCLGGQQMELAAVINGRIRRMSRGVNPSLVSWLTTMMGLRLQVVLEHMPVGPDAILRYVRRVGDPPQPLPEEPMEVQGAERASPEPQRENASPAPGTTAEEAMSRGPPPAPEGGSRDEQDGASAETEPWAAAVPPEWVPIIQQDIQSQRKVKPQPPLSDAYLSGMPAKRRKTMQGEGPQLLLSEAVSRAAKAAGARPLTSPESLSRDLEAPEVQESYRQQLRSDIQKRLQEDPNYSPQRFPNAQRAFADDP
UniProt Q8TDQ0, residues 22-301: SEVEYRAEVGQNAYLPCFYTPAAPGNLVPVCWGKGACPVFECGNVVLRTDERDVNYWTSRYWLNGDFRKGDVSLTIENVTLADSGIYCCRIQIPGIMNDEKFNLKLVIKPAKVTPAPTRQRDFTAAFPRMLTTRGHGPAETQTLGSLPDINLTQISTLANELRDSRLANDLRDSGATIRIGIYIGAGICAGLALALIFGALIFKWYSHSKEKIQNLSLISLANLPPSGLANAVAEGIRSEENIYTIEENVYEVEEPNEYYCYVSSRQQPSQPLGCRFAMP
UniProt P06239: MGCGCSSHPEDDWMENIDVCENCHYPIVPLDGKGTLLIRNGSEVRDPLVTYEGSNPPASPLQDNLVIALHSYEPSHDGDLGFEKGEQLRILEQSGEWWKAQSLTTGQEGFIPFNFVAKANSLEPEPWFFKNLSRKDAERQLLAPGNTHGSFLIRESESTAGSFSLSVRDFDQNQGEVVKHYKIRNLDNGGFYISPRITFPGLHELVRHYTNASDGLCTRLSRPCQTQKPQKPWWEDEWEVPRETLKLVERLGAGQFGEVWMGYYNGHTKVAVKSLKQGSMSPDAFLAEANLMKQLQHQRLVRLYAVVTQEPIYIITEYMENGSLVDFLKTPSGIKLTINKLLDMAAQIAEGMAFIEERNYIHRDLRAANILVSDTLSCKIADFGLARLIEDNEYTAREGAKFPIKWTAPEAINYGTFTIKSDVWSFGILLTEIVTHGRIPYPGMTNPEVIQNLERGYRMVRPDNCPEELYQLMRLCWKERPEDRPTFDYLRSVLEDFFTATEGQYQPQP

The target in one assay is Bat3-Myc (UniProt P46379). Put plainly: co-IP; Bat3-Myc and Tim-3-HA overexpressed in HEK 293 T cells; immunoprecipitation and immunoblot.
The target in assay [1] is Bat3 (in Jurkat T cells) (human (endogenous in Jurkat)) (UniProt P46379). Put plainly: co-IP; Jurkat T cells transfected with lentiviral particles (Tim-3-HA; without Lnc-Tim3 wild type), treated with anti-TCR/anti-CD28 beads and PMA-ionomycin; Bat3 precipitated, pLck blotted.
Assay [2] has the same target. Put plainly: condition: only in Lnc-Tim3 transfected Jurkat T cells; co-IP; Jurkat T cells transfected with lentiviral particles (Tim-3-HA and Lnc-Tim3 wild type), treated with anti-TCR/anti-CD28 beads and PMA-ionomycin; Bat3 precipitated, pLck blotted.

Results are given in words; binding and its absence hold for the method and conditions named. In cells and extracts the contact can be indirect. Some results given as binding are weak or reduced against the parent protein; the word gives no strength.

In the case of “Tim-3-HA (wild type T cell immunoglobulin mucin 3) (from UniProt Q8TDQ0 22-301) (receptor)”, in the assay with Bat3-Myc, the binding result is on record as “binds”.

Turning to “catalytically active form of Lck (pTyr394) (from UniProt P06239 1-509) (enzyme)”, the results for the binding entry in assay [1] and in assay [2] were “binds” and “no binding”, respectively.
